Test results from PubChem BioAssay AID651768 (National Center for Advancing Translational Sciences (NCATS), 2012).
About 1,700 (0.47%) of roughly 360,000 compounds were called active. This list was built around the results that the source calls inconclusive (neither active nor inactive); the mix of calls is not that of the screen. Calls come from the whole dose curve; as a rule, active = well fitted inhibition curve with a large enough effect; inconclusive = small, poorly fitted or top-dose-only effect; inactive = no such curve, though single readings can be large or run the other way. Potencies of inconclusive entries are doubtful fits and often do not repeat.

Chains of the proteins cited; added tags and fusions are not shown.
UniProt Q14191, whole entry, looked up: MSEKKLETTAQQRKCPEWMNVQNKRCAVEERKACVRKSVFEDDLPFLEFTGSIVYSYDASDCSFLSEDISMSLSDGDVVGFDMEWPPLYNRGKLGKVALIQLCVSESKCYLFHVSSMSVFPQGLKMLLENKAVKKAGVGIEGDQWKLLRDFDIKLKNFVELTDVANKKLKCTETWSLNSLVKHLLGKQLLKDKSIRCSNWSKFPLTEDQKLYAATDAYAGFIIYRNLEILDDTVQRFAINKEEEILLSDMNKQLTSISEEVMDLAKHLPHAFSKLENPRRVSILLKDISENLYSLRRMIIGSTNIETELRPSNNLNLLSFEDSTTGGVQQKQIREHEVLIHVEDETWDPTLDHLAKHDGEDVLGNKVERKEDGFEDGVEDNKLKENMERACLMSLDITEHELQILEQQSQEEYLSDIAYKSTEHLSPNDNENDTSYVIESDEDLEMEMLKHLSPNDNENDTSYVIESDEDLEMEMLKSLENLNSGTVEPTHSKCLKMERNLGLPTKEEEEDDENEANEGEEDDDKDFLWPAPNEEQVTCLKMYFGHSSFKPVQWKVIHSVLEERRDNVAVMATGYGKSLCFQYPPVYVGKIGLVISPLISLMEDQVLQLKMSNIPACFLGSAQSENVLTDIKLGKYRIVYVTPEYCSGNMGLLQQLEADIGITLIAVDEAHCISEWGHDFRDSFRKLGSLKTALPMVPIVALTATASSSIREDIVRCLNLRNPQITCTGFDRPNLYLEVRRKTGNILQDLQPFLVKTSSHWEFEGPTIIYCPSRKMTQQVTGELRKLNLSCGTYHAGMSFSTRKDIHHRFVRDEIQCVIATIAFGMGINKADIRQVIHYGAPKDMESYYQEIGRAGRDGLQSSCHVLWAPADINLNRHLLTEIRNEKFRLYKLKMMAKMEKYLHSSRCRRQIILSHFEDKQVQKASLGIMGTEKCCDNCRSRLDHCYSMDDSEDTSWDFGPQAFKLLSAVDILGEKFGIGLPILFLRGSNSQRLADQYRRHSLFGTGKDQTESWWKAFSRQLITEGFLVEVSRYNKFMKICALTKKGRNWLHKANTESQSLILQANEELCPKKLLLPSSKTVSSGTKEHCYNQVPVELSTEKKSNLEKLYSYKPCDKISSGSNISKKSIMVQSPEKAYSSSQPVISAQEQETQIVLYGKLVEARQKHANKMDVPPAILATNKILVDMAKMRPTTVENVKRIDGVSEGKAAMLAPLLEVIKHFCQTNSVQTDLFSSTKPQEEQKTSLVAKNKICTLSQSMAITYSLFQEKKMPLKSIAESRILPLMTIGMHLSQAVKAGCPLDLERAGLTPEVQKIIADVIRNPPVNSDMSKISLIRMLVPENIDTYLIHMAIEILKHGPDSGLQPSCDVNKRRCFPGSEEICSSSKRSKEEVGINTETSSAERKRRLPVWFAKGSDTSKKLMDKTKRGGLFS

These molecules were tested against Bifunctional 3'-5' exonuclease/ATP-dependent helicase WRN (Homo sapiens) (UniProt Q14191) (assay: qHTS for Inhibitors of WRN Helicase). Details: WRN helicase unwinding, fluorescent forked duplex, kinetic; series mostly up to 114 µM.
In short: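 Kinetic fluorescence helicase assay: unwinding of a quenched forked DNA duplex (100 nM final) with 2 mM ATP final raises red fluorescence (525/598 nm). Compounds sat 15 min at room temperature with 20 nM WRN beforehand.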
Note: nearly all actives have a fitted effect of over 55% in size.
Potency is the fitted concentration of half-maximal effect.

Which Potency does the source give for `Cc1ccc(/C=C2/SC(=S)N(c3ccc(S(=O)(=O)Nc4nccs4)cc3)C2=O)cc1` here?
The Potency was inconclusive: 70.8 µM [inhibitor, partial curve].

How did the Potency turn out when `COc1ccccc1-n1c2nc3ccccc3nc2c2c(=O)n(-c3cc(C)cc(C)c3)cnc21` was run?
Its Potency is “inactive”.

How did the Potency turn out when `O=C(Cc1ccsc1)N1CCN(S(=O)(=O)c2ccccc2F)CC1` was run?
Its Potency is inconclusive: 15.8 µM [inhibitor, single point].

How did the Potency turn out when `O=C(Nc1cccc2nsnc12)c1cc2c(cc1Cl)Sc1nccn1S2(=O)=O` was run?
Its Potency is inconclusive: 14.1 µM [inhibitor, full curve, poor fit].

`CCOC(=O)CC[C@H](NC(=O)Cn1cc(C)c(=O)[nH]c1=O)C(=O)OCC` was tested. Which Potency did it give?
The Potency was “inactive”.

With `COc1ccc(C2(c3ccc(OC)cc3)NC(=O)NC2=O)cc1` as the molecule, how does the Potency read?
The Potency was “inactive”.

`Cc1cccc(C)c1OCC(=O)NNC(=O)CCNC(=O)c1ccc(Br)cc1` was tested. Which Potency did it give?
Its Potency is inconclusive: 89.1 µM [inhibitor, single point].

Which Potency does the source give for `O=C(NCCCN1CCCC1)c1ccc2c(c1)N(Cc1ccccc1F)C(=O)c1ccccc1S2(=O)=O` here?
Its Potency is “inactive”.

For `COc1ccc(-c2cc(NC=O)c3ncc(-c4cccc(C(=O)NCCN(C)C)c4)n3c2)c(OC)c1`, which Potency is on record?
The Potency was inconclusive: 35.5 µM [inhibitor, single point].

`O=C1CN(C(=O)COC(=O)c2ccc(C(F)(F)F)cc2)c2ccccc2N1` was tested. Which Potency did it give?
The Potency was “inactive”.

With `Cn1cc(Br)c(C(=O)Nc2sc3c(c2C(N)=O)CCC3)n1` as the molecule, how does the Potency read?
The Potency was inconclusive: 39.8 µM [inhibitor, partial curve].

With `Cc1ccc(S(=O)(=O)N(CCC(=O)Nc2ccc(OC(F)(F)F)cc2)c2ccccc2)cc1` as the molecule, how does the Potency read?
Its Potency is inconclusive: 25.1 µM [inhibitor, single point].

`CCOC(=O)c1sc2nc(OCc3cccnc3)cc(C)c2c1N` was tested. Which Potency did it give?
Its Potency is inconclusive: 79.4 µM [inhibitor, partial curve].

For `Cc1ccc(C2=NN(C(=O)CCC(=O)O)C(c3cn(-c4ccccc4)nc3-c3ccc(C)cc3)C2)cc1` (centres undefined), which Potency is on record?
The Potency was inconclusive: 70.8 µM [inhibitor, single point].

`COC(=O)C1=C(C)NC2=C(C(=O)c3ccccc32)C1c1ccc(-c2ccc(C(=O)O)cc2)o1` (centres undefined) was tested. Which Potency did it give?
Its Potency is inconclusive: 35.5 µM [inhibitor, partial curve].

`COCCn1c(=S)[nH]c2cc(C(=O)N(CCO)Cc3ccccc3)ccc2c1=O` was tested. Which Potency did it give?
Its Potency is “inactive”.

How did the Potency turn out when `CCOC(=O)Cc1csc(N/N=C/c2cccc([N+](=O)[O-])c2)n1` was run?
Its Potency is “inactive”.

With `S=c1[nH]nc(-c2cc(-c3ccccc3)n[nH]2)n1/N=C/c1cccc(Cl)c1` as the molecule, how does the Potency read?
The Potency was active: 50.1 µM.

`CN(C(=O)COC(=O)c1c2c(nc3ccccc13)CCCC2)c1c(N)n(Cc2ccccc2)c(=O)[nH]c1=O` was tested. Which Potency did it give?
Its Potency is “inactive”.

With `O=[N+]([O-])c1ccc(S(=O)(=O)c2ccccc2)nc1` as the molecule, how does the Potency read?
Its Potency is inconclusive: 56.2 µM [inhibitor, partial curve].

How did the Potency turn out when `O=C1C=CC(=O)N1c1ccc(N2CCCCC2)cc1` was run?
Its Potency is active: 39.8 µM.

How did the Potency turn out when `O=c1nc2s/c(=C\c3ccco3)c(=O)n2nc1Cc1ccccc1` was run?
Its Potency is active: 35.5 µM.

For `O=C(COC(=O)CCc1nc2ccccc2c(=O)[nH]1)NC(=O)NC1CCCC1`, which Potency is on record?
Its Potency is inconclusive: 50.1 µM [inhibitor, partial curve].

How did the Potency turn out when `COc1cc(-c2cc(NC=O)c3ncc(-c4ccc(C(C)=O)cc4)n3c2)cc(OC)c1OC` was run?
Its Potency is inconclusive: 22.4 µM [inhibitor, partial curve, poor fit].

How did the Potency turn out when `COc1cc(OC)cc(C(=O)n2cnnc2N)c1` was run?
The Potency was inconclusive: 56.2 µM [inhibitor, partial curve].

Which Potency does the source give for `CCOC(=O)/C=C/C(=O)OCC(=O)NC(c1ccccc1)c1ccccc1` here?
Its Potency is inconclusive: 44.7 µM [inhibitor, partial curve].

For `O=C(O)C(Cc1ccccc1)N=C(NS(=O)(=O)c1ccccc1)c1ccccc1` (centres undefined), which Potency is on record?
The Potency was “inactive”.

`Cc1cccc2cc(C3CC(c4ccco4)=NN3C(=O)CCC(=O)O)c(Cl)nc12` (centres undefined) was tested. Which Potency did it give?
Its Potency is inconclusive: 39.8 µM [inhibitor, single point].

For `Cc1ccccc1-c1nnn(CC(=O)N(C)CC(=O)Nc2ccccc2C(F)(F)F)n1`, which Potency is on record?
Its Potency is “inactive”.

`O=C(COC(=O)/C=C/c1ccco1)NCc1ccccc1Cl` was tested. Which Potency did it give?
The Potency was “inactive”.

Which Potency does the source give for `Cc1ccc(NC(=O)C2C3C=CC4(O3)C2C(=O)N(CCCN2CCCCC2)C4C(=O)NC2CCCCC2)cc1C` (centres undefined) here?
Its Potency is “inactive”.

`O=C(CSc1ccccc1)Nc1ccc(S(=O)(=O)Nc2ncccn2)cc1` was tested. Which Potency did it give?
The Potency was inconclusive: 89.1 µM [inhibitor, single point].

With `O=C(O)c1cccc(N2C(=O)c3ccc(C(=O)c4cccc([N+](=O)[O-])c4)cc3C2=O)c1` as the molecule, how does the Potency read?
The Potency was “inactive”.

How did the Potency turn out when `O=C(O)c1ccccc1SCC(=O)N1c2ccccc2Sc2ccccc21` was run?
The Potency was “inactive”.

`Cc1cccc(NC(=S)NCCc2ccccn2)c1` was tested. Which Potency did it give?
Its Potency is inconclusive: 25.1 µM [inhibitor, single point].

`COc1cc(/C=C2\C(=N)N3N=CSC3=NC2=O)ccc1OS(=O)(=O)c1ccccc1[N+](=O)[O-]` was tested. Which Potency did it give?
Its Potency is inconclusive: 31.6 µM [inhibitor, partial curve].

How did the Potency turn out when `COc1cc(NS(=O)(=O)c2ccc(NC(=S)NC(=O)c3sc4cc(F)ccc4c3Cl)cc2)nc(OC)n1` was run?
The Potency was inconclusive: 13.4 µM [inhibitor, partial curve].

Which Potency does the source give for `Cc1nc(C)c(C(=O)NNS(=O)(=O)c2ccc([N+](=O)[O-])cc2)s1` here?
Its Potency is inconclusive: 31.6 µM [inhibitor, single point].

How did the Potency turn out when `CC(=O)NCCNc1nc2cc(-c3ccc4c(ccn4C)c3)sc2c(=O)n1C` was run?
The Potency was “inactive”.

Which Potency does the source give for `O=c1c2c([nH]c3ccccc13)C(=C1CCCC1)CC2` here?
The Potency was active: 50.1 µM.

For `O=C(/C=C/c1ccco1)Nc1ccccc1C(=O)Nc1cccc(C(=O)O)c1`, which Potency is on record?
Its Potency is inconclusive: 31.6 µM [inhibitor, full curve, poor fit].

With `Cc1cccc(-n2ccnc2SCC(=O)Nc2nccs2)c1C` as the molecule, how does the Potency read?
Its Potency is “inactive”.

Which Potency does the source give for `Cc1c(OCC(=O)NC(Cc2c[nH]c3ccc(O)cc23)C(=O)O)ccc2c3c(c(=O)oc12)CCC3` (centres undefined) here?
The Potency was inconclusive: 79.4 µM [inhibitor, partial curve].

For `COCc1cc(N2CCCCC2)nc(-c2ccccc2)n1`, which Potency is on record?
The Potency was inconclusive: 63.1 µM [inhibitor, single point].

`COc1cc(/C=C2/SC(=Nc3ccc(O)cc3)NC2=O)ccc1O` was tested. Which Potency did it give?
Its Potency is active: 50.1 µM.

How did the Potency turn out when `Cc1cc(/C=C\c2ccc3cc(N(C)C)ccc3[n+]2C)c(C)n1-c1ccccc1` was run?
The Potency was inconclusive: 14.1 µM [inhibitor, full curve, poor fit].

`O=C(CSc1nc(O)cc(=O)n1-c1ccccc1)Nc1ccc2c3c(cccc13)CC2` was tested. Which Potency did it give?
The Potency was inconclusive: 22.4 µM [inhibitor, full curve].

Which Potency does the source give for `COC(=O)C1N2C(=O)[C@@H](NC(=O)COc3ccccc3)[C@H]2SC1(C)C` (some centres undefined) here?
The Potency was “inactive”.

For `c1ccc(OCc2nnc3sc(C4COc5ccccc5O4)nn23)cc1` (centres undefined), which Potency is on record?
Its Potency is inconclusive: 29.9 µM [inhibitor, partial curve].

How did the Potency turn out when `Cc1ccc(S(=O)(=O)/N=C2/NC(=O)/C(=C/c3cc([N+](=O)[O-])ccc3O)S2)cc1` was run?
Its Potency is inconclusive: 50.1 µM [inhibitor, partial curve].

How did the Potency turn out when `Cn1c2ccccc2c2cc(/C=N/NC(=O)c3cc(O)ccc3O)ccc21` was run?
Its Potency is active: 22.4 µM.

For `O=c1nc(N/N=C/c2ccco2)cn[nH]1`, which Potency is on record?
The Potency was inconclusive: 20 µM [inhibitor, full curve, poor fit].

Which Potency does the source give for `O=C(Nc1cccc(N=Cc2cc(Br)cc(Br)c2O)c1)c1ccco1` here?
The Potency was inconclusive: 56.2 µM [inhibitor, partial curve].

How did the Potency turn out when `COc1cc(/C=N/NC(=O)c2ccccc2O)ccc1OCC(=O)Nc1ccccc1` was run?
The Potency was inconclusive: 50.1 µM [inhibitor, partial curve].

How did the Potency turn out when `CCCCC1(C)OC(=O)C(=Cc2ccc(N(CC)CC)cc2)C(=O)O1` (centres undefined) was run?
Its Potency is inconclusive: 56.2 µM [inhibitor, partial curve].

Which Potency does the source give for `O=C(NCCNC1CCCCC1)c1ccco1` here?
The Potency was inconclusive: 35.5 µM [inhibitor, full curve].

With `Cc1ccc(OCC(=O)N2C(C)CCCC2C)c([N+](=O)[O-])n1` (centres undefined) as the molecule, how does the Potency read?
The Potency was “inactive”.

How did the Potency turn out when `O=C(O)COc1ccc(/C=C/C(=O)c2ccc3ccccc3c2)cc1` was run?
The Potency was inconclusive: 15.8 µM [inhibitor, single point].

For `COC(=O)c1cc(C(=O)OC)cc(N2C(=O)CC(NNC(=O)c3ccccc3Br)C2=O)c1` (centres undefined), which Potency is on record?
The Potency was “inactive”.

How did the Potency turn out when `O=C(CC1C[C@H](C(=O)N2CCCCC2)[C@@]2(CCc3ccccc3)c3[nH]c4ccccc4c3CCN2C1=O)NCCc1ccccn1` (some centres undefined) was run?
Its Potency is “inactive”.

With `Cc1cc(O)cc2c1C(=O)/C(=C/c1ccco1)O2` as the molecule, how does the Potency read?
Its Potency is “inactive”.

`Cc1ccc(S(=O)(=O)N/N=C/c2cc([N+](=O)[O-])ccc2O)cc1[N+](=O)[O-]` was tested. Which Potency did it give?
Its Potency is inconclusive: 31.6 µM [inhibitor, single point].

For `CCCN1C(=O)/C(=C/C=C2\N(CC)c3ccccc3C2(C)C)SC1=S`, which Potency is on record?
Its Potency is active: 18.9 µM.

How did the Potency turn out when `COc1cc(OC)c(-c2c3cc(O)c(=O)cc-3oc3cc(O)c(O)cc23)cc1OC` was run?
Its Potency is active: 2.38 µM.

`O=C1C(=Cc2ccc(Br)o2)C(=O)c2ccccc21` was tested. Which Potency did it give?
The Potency was active: 8.91 µM.

For `CN1/C(=C\C(=O)COC(=O)c2ccc(O)c(O)c2)C(C)(C)c2ccccc21`, which Potency is on record?
Its Potency is inconclusive: 63.1 µM [inhibitor, partial curve, poor fit].

With `CC(=O)Nc1ccc(NC(=O)C(C)OC(=O)CCC2CCCCC2)cc1` (centres undefined) as the molecule, how does the Potency read?
Its Potency is inconclusive: 89.1 µM [inhibitor, single point].

How did the Potency turn out when `CC(C)N1CCc2c(sc(NC(=O)c3nc4ccccc4s3)c2C(N)=O)C1` was run?
The Potency was “inactive”.

With `O=[N+]([O-])c1cc(S(=O)(=O)C(F)(F)F)ccc1Sc1nc2ccccc2s1` as the molecule, how does the Potency read?
The Potency was inconclusive: 17.8 µM [inhibitor, partial curve].
